From PMC12339391
These are yes or no findings as the source states them, for the method shown. In cells and extracts the contact can be indirect. These calls come from enrichment with a bait or labelling near it, and not all partners need be listed. Tags and fused reporters may be left off the sequences shown.

T1: Pex18-TPA (S. cerevisiae Pex18 fused C terminally with the TEV protease cleavage site and protein A tag) (S. cerevisiae) (UniProt P38855)
T1 sequence: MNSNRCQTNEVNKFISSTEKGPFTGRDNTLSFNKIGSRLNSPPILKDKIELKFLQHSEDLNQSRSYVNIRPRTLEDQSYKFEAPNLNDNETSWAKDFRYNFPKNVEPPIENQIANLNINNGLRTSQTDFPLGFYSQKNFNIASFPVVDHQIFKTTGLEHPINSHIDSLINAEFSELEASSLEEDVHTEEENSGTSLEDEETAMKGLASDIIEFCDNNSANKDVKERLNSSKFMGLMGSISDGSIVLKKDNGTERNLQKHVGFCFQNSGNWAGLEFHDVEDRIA

B1: ScPex39 (S. cerevisiae Yjr012c) (protein, UniProt P47087 1-132)
chain: MAAGGELSYEELLDHILNNKPIPNIVEVPNVTLDEGLASTPSLRPRPRPWEGQLQHQSHQGSLDKPNISLDIDQESLEGMTSLTRLSECYDIQSKLQINDSDNDNDDNNNDNNKGDGNDDDNNTVTANPTAR
B2: Pex7 (S. cerevisiae) (protein, UniProt P39108 1-375)
chain: MLRYHMQGFSGYGVQYSPFFDNRLAVAAGSNFGLVGNGKLFILEIDRSGRIVEVNSFLTQDCLFDLAWNESHENQVLVAQGDGTLRLFDTTFKEFPIAIFKEHEREVFSCNWNLVNRQNFLSSSWDGSIKIWSPLRKQSLMTLTPRPLEITKMVDPLNAIILKKKSFTGISKNRNCVYQAQFSPHDQNLVLSCSGNSYASLFDIRLPSGKNQNNFLVHSGLEALTCDFNKYRPYVVATGGVDNAIRIWDIRMLNKNESATIKRTVPGQLHNSSCINEIPNAHGLAIRKVTWSPHHSNILMSASYDMTCRIWRDLSNDGAKETYKTNSTDATKGSIFNFTQHSEFVFGADWSLWGKPGYVASTAWDGNLFVWNGLG

Molecular target: T1, Pex18-TPA (S. cerevisiae Pex18 fused C terminally with the TEV protease cleavage site and protein A tag) (S. cerevisiae)
Assay: affinity purification with mass spectrometry; Pex18-TPA (protein A tag) as bait; native complexes from soluble fractions of yeast grown in oleic acid medium, eluted with TEV protease; control: untagged wild type; label-free quantification, n = 3

| Binder | binding |
| --- | --- |
| B1 | binds |
| B2 | binds |
